Experimental data as given in PubChem BioAssay AID504444 (National Center for Advancing Translational Sciences (NCATS), 2011).
Where “and” joins values, the source holds several entries; their conditions need not be identical. Identical values can stand only once. Out of some 360,000 compounds screened, about 7,500 (2.1%) were called active. This list was built around the results that the source calls inconclusive (neither active nor inactive); the mix of calls is not that of the screen. Calls follow the shape of the dose curve; as a rule, active = well fitted inhibition curve with a large enough effect; inconclusive = small, poorly fitted or top-dose-only effect, or effect the other way; inactive = flat fitted curve, though single readings scatter. Potencies of inconclusive entries are doubtful fits and often do not repeat.

test: Nrf2 qHTS screen for inhibitors; conditions: A549 ARE-Fluc reporter, luciferase luminescence, 18-24 h; activity change, negative = inhibition: at 46 µM (top of the series); also: nearly all actives have a fitted effect of over 60% in size
How it was run: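 Cells were seeded and rested 2 h, then exposed to compounds for 18-24 h. CellTiter-Fluor was read first as a viability measure. BugLite was added 15 min before the final luminescent read of ARE-luciferase activity in A549 cells.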
% is scaled to controls: 0 for no effect and ±100 for the full control effect; potency is read from the fitted curve at half-maximal effect.

| Compound | Potency | activity change, negative = inhibition |
| --- | --- | --- |
| CCOc1ccc(/C=C/C2=Cc3c(sc(NC(=O)CSc4n[nH]c(N)n4)c3C#N)C(C)(C)C2)cc1 | inconclusive: 29.1 µM [falling, single point] |  |
| COc1ccc([C@H]2CC(=O)C=C(c3ccc4[nH]ccc4c3)C2)cc1OC | inconclusive: 18.4 µM [falling, single point] |  |
| O=c1c2c(nc3c(-c4ccccc4)c[nH]n13)CCCC2 | inconclusive: 29.1 µM [falling, single point] |  |
| CCC(=O)N1CCN(c2nc(-c3ccccc3)c3c(c2C#N)CCCC3)CC1 | inconclusive: 32.6 µM [falling, single point] |  |
| O=S(=O)(c1cccc2ccccc12)N1CCN(c2ccc(Cl)c(Cl)c2)CC1 | inconclusive: 3.66 µM [falling, partial curve, poor fit] |  |
| COc1nc(-c2ccccc2)nc(C)c1CC(=O)O |  | inactive: -8.36% |
| CCN1C(=O)C(CC(=O)Nc2ccc(C)cc2C)Nc2cc(S(=O)(=O)N(C)C)ccc21 (stereo not given) | inconclusive: 16.4 µM [falling, single point] |  |
| COc1cc(NC(=O)CSc2ccc(-c3ccccn3)nn2)cc(OC)c1 | inconclusive: 20.6 µM [falling, single point] and inconclusive: 29.1 µM [falling, single point] |  |
| CCOC(=O)/C(=C/c1ccc(OC(=O)c2ccncc2)cc1)C(C)=O |  | inactive: 0.378% |
| Cn1nnnc1SCC(=O)Nc1nc2ccccc2s1 | inconclusive: 7.31 µM [activator, partial curve, poor fit] |  |
| FC(F)(F)c1ccc(NC(=S)NCc2ccccc2)cc1 | inconclusive: 29.1 µM [falling, single point] |  |
| CC/C(=N\Nc1ccc([N+](=O)[O-])cc1[N+](=O)[O-])c1ccc(O)cc1 | inconclusive: 29.1 µM [falling, single point] |  |
| CC(=O)N1CCc2c(sc(NC(=O)C3COc4ccccc4O3)c2C(N)=O)C1 (stereo not given) |  | inactive: -12.6% |
| CCCCN(CCCC)c1ncnc2nc[nH]c12 | inconclusive: 18.4 µM [falling, partial curve] |  |
| O=C(Nc1ccc2nc(-c3ccc(Br)o3)[nH]c2c1)c1cccs1 | active: 18.4 µM |  |
| CCOC(=O)c1c(CN2CCOCC2)n(C)c2cc(Br)c(O)c(CN(C)C)c12 | inconclusive: 16.4 µM [falling, single point] |  |
| COc1ccc(OC)c(NC(=O)CCNS(=O)(=O)c2cc(Br)cnc2N)c1 |  | inactive: 6.37% |
| CCCCCCn1c(N2CCCC2)nc2c1c(=O)n(C)c(=O)n2C | inconclusive: 18.4 µM [falling, partial curve] |  |
| COc1cc([N+](=O)[O-])cc(/C=N\NC(=O)C2COc3ccccc3O2)c1O (stereo not given) | inconclusive: 5.8 µM [falling, partial curve, poor fit] |  |
| CC(C)Cn1c(SCC(=O)NC(=O)Nc2ccc3c(c2)OCCO3)nc2ccccc2c1=O | inconclusive: 14.6 µM [falling, partial curve, poor fit] |  |

| Compound | Potency | activity change, negative = inhibition |
| --- | --- | --- |
| CC(C)c1ccc(S(=O)(=O)N2CCC(N3CCN(Cc4ccccc4)C(=O)C3=O)CC2)cc1 | inconclusive: 16.4 µM [activator, single point] |  |
| O=C(Nc1ccccn1)c1ccc2c(c1)OCO2 | inconclusive: 13 µM [activator, partial curve, poor fit] |  |
| N#Cc1sc(NCc2ccccn2)nc1Cl |  | inactive: 17.5% |
| Cc1ccc2oc(=O)n(CCCOc3ccccc3Cl)c2c1 |  | inactive: 22.1% |
| COc1ccc(NC(=S)NC(NC(=O)c2ccc(Cl)cc2Cl)C(Cl)(Cl)Cl)c([N+](=O)[O-])c1 (stereo not given) | inconclusive: 29.1 µM [falling, single point] |  |
| C/C(=N\NC(=O)c1ccc(Cl)c(Cl)c1)c1ccc(Br)s1 | active: 7.31 µM |  |
| CCOC(=O)c1cnc2c(C)c(Cl)ccc2c1Nc1ccc(N2CCOCC2)cc1 |  | inactive: 5.82% |
| COc1cc(OC)c(N(C)S(=O)(=O)c2cccc(C(=O)OCC(=O)c3c[nH]c4ccccc34)c2)cc1Cl |  | inactive: -19.4% |
| CCN(CC)CCN(C(=O)c1cc2ccccc2cc1OC)c1nc2ccc(F)cc2s1 | inconclusive: 25.9 µM [activator, partial curve, poor fit] |  |
| CC(=O)COC(=O)c1ccc2noc(-c3ccccc3)c2c1 | inconclusive: 8.2 µM [activator, partial curve] |  |
| O=C1Nc2ccccc2C12OCC1(CO2)COC2(OC1)C(=O)Nc1ccccc12 (stereo not given) | inconclusive: 8.91 µM [falling, partial curve, poor fit] |  |
| CCN(CC)S(=O)(=O)c1ccc(C(=O)Nc2cc3oc4ccccc4c3cc2OC)cc1 | inconclusive: 5.17 µM [falling, partial curve] |  |
| O=S(=O)(Cc1cc(-c2ccccc2Cl)no1)c1ccccc1 | inconclusive: 18.4 µM [activator, single point] |  |
| CCCNC(=S)N1CCC(C(=O)c2ccc(Cl)cc2)CC1 | inconclusive: 16.4 µM [falling, single point] |  |
| C=CCn1c(SCC(=O)N2CCOCC2)nc2sc3c(c2c1=O)CCCC3 | inconclusive: 3.26 µM [falling, partial curve] |  |
| CCCc1cc(C(=O)Nc2ccc(C(=O)OC)cc2)cs1 | inconclusive: 14.6 µM [activator, partial curve] |  |
| COC(=O)[C@@H](Cc1c[nH]c2ccccc12)NC(=O)c1cc(=O)[nH]c2ccccc12 | inconclusive: 32.6 µM [falling, partial curve, poor fit] |  |
| NS(=O)(=O)c1ccc(NC(=O)CCCCC(=O)Nc2ccc(S(N)(=O)=O)cc2)cc1 | inconclusive: 7.31 µM [activator, partial curve, poor fit] |  |
| Cc1ccc(-c2cn3c(n2)sc2cc(C(=O)NCCCc4ccccc4)ccc23)c(C)c1 | inconclusive: 29.1 µM [activator, single point] |  |
| COc1ccc(CNC(=O)C[C@H]2C(=O)N(Cc3ccccc3)C[C@@H]2Cc2ccccc2)cc1 | inconclusive: 32.6 µM [falling, partial curve, poor fit] |  |
